From patent US20140121168A1, “ANTAGONISTS OF TRPV1 RECEPTOR” (ANTAGONISTS OF TRPV1 RECEPTOR, priority 2011, published 2014)
At least one peptide structure holds a part that was inferred or is arguable (an end, a ring closure or a residue). Where a SMILES comes first, the peptide text is derived from it. Bridges are numbered along the chain shown (N, C = ends). [ ]: non-standard residue; d: D form. The star is where a group is joined. d(aThr) = C[C@@H](O)[C@@H](N)C(=O)O; Dhb = C/C=C(\N)C(=O)O; Propionyl = CCC(=O)*

By UniProt entry, the sequences of proteins in these tests, tags left out.
UniProt Q8NER1, whole entry C621A: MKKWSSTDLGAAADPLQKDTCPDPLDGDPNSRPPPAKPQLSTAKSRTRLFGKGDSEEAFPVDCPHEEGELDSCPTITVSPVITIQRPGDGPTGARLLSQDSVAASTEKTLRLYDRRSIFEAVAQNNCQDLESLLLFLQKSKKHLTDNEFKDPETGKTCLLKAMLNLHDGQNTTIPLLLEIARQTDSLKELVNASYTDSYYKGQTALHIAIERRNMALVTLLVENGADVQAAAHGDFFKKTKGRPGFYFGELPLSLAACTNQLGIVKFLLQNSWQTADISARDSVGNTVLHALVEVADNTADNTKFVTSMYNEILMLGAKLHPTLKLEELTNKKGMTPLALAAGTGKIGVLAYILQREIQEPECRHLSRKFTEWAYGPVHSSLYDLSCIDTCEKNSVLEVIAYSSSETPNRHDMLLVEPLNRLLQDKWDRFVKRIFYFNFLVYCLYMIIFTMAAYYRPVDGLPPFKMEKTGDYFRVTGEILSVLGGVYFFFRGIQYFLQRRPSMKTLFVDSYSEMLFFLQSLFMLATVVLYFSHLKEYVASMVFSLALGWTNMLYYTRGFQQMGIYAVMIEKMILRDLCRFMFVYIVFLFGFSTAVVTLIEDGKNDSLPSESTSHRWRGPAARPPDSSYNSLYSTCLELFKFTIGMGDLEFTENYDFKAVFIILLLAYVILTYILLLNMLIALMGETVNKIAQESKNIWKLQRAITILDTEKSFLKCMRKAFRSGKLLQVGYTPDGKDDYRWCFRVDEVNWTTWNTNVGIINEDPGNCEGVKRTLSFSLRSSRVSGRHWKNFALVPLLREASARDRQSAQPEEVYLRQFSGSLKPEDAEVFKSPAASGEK
UniProt Q8NER1, whole entry: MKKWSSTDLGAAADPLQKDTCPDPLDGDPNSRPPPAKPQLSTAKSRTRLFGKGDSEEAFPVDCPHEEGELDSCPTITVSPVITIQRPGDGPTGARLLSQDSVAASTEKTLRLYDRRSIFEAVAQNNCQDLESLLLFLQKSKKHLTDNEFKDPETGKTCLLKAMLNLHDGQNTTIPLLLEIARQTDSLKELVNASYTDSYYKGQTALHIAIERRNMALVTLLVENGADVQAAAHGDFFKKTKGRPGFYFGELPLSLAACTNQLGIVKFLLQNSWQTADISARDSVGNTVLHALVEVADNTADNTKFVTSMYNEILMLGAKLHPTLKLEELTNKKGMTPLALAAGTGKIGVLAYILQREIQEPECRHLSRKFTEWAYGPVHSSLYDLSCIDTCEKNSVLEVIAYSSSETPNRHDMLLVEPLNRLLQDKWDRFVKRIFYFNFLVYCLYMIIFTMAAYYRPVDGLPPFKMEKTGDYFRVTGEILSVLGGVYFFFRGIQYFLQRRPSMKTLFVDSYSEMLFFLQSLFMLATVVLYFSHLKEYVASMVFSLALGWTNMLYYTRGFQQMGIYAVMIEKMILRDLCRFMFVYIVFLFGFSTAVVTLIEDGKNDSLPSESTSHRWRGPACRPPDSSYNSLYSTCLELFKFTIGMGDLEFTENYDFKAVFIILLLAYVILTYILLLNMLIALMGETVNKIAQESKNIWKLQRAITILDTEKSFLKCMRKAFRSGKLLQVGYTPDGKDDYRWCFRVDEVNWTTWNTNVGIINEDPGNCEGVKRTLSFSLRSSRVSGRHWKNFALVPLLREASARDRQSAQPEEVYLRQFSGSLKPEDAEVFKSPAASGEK
UniProt Q8NER1, whole entry F660A: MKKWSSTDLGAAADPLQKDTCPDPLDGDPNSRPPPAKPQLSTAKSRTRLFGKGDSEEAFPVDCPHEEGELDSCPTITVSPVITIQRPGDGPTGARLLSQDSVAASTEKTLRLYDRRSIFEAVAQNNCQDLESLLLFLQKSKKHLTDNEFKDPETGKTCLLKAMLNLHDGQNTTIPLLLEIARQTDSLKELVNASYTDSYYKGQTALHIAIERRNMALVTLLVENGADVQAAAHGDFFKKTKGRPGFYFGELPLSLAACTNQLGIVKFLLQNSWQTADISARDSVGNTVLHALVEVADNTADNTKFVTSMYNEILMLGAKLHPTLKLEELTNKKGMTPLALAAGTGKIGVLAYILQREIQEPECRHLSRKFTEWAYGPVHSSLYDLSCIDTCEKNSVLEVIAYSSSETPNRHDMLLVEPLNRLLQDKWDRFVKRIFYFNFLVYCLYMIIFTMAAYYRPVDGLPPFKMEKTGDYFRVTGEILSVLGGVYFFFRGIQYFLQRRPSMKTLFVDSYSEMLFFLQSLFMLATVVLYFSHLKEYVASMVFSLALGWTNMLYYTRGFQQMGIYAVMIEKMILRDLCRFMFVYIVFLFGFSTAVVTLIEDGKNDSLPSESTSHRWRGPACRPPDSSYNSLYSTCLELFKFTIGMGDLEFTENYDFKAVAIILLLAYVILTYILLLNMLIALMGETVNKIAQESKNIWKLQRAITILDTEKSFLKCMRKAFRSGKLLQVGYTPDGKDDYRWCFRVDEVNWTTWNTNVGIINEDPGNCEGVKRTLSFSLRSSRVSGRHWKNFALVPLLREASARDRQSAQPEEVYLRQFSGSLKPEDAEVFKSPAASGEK
UniProt Q8NER1, whole entry C578A: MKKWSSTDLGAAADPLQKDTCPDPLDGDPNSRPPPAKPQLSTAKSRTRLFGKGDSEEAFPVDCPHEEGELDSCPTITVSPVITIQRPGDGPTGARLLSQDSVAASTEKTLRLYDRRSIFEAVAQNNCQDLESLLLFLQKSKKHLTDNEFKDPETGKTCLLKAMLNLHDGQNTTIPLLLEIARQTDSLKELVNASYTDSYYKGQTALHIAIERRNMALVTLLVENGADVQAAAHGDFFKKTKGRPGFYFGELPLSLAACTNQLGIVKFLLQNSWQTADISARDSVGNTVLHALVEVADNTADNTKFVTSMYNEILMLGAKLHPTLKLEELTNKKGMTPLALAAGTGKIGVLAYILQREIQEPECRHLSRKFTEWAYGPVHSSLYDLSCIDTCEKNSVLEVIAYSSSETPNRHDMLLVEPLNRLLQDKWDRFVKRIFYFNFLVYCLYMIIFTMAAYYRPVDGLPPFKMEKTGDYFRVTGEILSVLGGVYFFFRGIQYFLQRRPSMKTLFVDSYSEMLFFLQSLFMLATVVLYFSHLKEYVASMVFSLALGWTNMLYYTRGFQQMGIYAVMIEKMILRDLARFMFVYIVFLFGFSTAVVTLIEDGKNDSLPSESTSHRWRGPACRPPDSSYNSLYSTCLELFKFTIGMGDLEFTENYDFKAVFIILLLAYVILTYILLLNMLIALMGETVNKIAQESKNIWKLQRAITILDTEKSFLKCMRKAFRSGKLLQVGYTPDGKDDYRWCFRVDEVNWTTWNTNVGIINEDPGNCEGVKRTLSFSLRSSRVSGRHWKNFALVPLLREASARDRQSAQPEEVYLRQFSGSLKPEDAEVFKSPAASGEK
UniProt Q704Y3, whole entry: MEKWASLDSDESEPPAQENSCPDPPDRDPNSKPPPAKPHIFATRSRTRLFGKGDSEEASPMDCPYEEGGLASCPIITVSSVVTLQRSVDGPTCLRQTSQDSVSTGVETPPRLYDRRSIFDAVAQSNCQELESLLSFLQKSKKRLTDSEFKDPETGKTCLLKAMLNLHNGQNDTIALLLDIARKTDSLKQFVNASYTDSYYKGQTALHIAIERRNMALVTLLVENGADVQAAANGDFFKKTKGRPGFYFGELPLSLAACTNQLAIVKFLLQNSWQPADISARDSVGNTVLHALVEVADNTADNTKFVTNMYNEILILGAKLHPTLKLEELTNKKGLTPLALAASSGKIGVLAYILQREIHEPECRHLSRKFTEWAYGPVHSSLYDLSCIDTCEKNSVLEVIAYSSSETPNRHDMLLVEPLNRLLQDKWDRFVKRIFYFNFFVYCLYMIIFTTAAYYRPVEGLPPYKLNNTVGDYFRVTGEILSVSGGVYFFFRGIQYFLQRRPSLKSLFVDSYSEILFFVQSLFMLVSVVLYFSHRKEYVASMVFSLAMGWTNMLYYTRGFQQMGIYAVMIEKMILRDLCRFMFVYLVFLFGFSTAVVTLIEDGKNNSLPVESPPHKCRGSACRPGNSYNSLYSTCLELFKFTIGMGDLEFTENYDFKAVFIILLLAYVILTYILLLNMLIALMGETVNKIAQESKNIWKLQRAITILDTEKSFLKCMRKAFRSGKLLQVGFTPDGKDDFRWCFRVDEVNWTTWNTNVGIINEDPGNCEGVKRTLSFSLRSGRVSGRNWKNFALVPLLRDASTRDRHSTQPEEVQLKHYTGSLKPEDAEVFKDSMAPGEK

Key:
[1] = system: mutant human TRPV1 variants; assay: calcium flux assay in HEK cells overexpressing three further mutant human TRPV1 variants (not named); settings: 375 μM pre-incubated, FIG. 4
[2] = molecular target: human TRPV1 C621A mutant (Homo sapiens, UniProt Q8NER1, C621A); assay: calcium flux assay in HEK cells overexpressing mutant human TRPV1 (C621A); settings: 375 μM pre-incubated, FIG. 4
[3] = molecular target: T1, TRPV1 (Homo sapiens, UniProt Q8NER1); assay: TRPV1 assays, inhibition of capsaicin response (cell line not stated for the IC50 values)
[4] = molecular target: T1, TRPV1; assay: calcium flux assay in BEAS-2B cells stably overexpressing human TRPV1; type: cell-based; set-up: expressed in transfected cells
[5] = molecular target: human TRPV1 F660A mutant (Homo sapiens, UniProt Q8NER1, F660A); assay: calcium flux assay in HEK cells overexpressing mutant human TRPV1 (F660A); settings: 375 μM pre-incubated, FIG. 4
[6] = molecular target: human TRPV1 C578A mutant (Homo sapiens, UniProt Q8NER1, C578A); assay: calcium flux assay in HEK cells overexpressing mutant human TRPV1 (C578A); settings: 375 μM pre-incubated, FIG. 4
[7] = molecular target: T2, TRPV1 (Mus musculus, UniProt Q704Y3); assay: long-term TRPV1 antagonism test in DRG neurons; type: cell-based
T2 construct: from tissue; host or cells: primary dorsal root ganglion neurons of C57Bl/6 mice

[8] = system: DRG neurons; assay: fluorometric calcium flux DRG assay; type: cell-based, mouse; settings: final concentration 125 μM; 25 mM KCl 5 min after application, then capsaicin

Row | SMILES | inhibition of three further mutants compared with wild type [1] | TRPV1 antagonism in C621A mutant [2] | inhibitory activity on TRPV1 (in words) [3] | activity with pre-incubation versus co-application [4] | antagonism of the action of capsaicin on TRPV1 ([4]; direct competition experiments) | TRPV1 antagonism in F660A mutant [5] | TRPV1 antagonism in C578A mutant [6] | capsaicin response after incubation with compound ([7]; 125 μM, 5 min incubation, capsaicin 100 or 200 nM) | recovery of capsaicin response ([7]; 125 μM, recovery over a three-hour period) | recovery of capsaicin response with inhibitors of transcription, translation and trafficking ([7]; cells also treated with actinomycin D, cycloheximide and brefeldin A, 3-hour recovery experiment) | response of DRG cells to capsaicin after application of pure compound [8]
1 | C/C=C1\NC(=O)[C@H](C)NC(=O)[C@H](C(C)C)NC(=O)[C@H](NC(=O)[C@H](Cc2ccccc2)NC(=O)[C@@H](CC(C)C)NC(=O)[C@@H](Cc2ccccc2)NC(=O)CC)[C@@H](C)OC1=O [compound 2, A-3302-A] (Propionyl-[dF][dL]F[d(aThr)]VA[Dhb]; ester 4-C (inferred); N-terminus assumed) | in a manner similar to wild type | complete loss of TRPV1 antagonism | substantial inhibitory activity | substantially greater activity | antagonize the action of capsaicin on TRPV1 | complete loss of TRPV1 antagonism | complete loss of TRPV1 antagonism | – | – | – | –
2 | C/C=C(\NC(=O)[C@H](C)NC(=O)[C@@H](NC(=O)[C@H](NC(=O)[C@H](Cc1ccccc1)NC(=O)[C@@H](CC(C)C)NC(=O)[C@@H](Cc1ccccc1)NC(C)=O)[C@@H](C)O)C(C)C)C(=O)O [compound 4, Nobilamide A] (Ac-[dF][dL]F[d(aThr)]VA[Dhb]-OH) | – | – | substantial inhibitory activity | – | – | – | – | initially abolished | recovery is observed after three hours | restored after about three hours | complete loss of response to capsaicin
